At least one compound was matched to its structure with a doubt left.
Assays:
[1] = Binding to hydroxyapatite (effect of bisphosphonates and their derivatives on hydroxyapatite)
[2] = Inhibition of hydroxyapatite growth (calcium phosphate crystal formation and precipitation inhibiting activity); type: biochemical; parameters: key to the marks not given beside the values; settings: at 100 μM

CCCCC(O)(P(=O)(O)O)P(=O)(O)O [(1-Hydroxypentylidene)bisphosphonate, (1-Hydroxypentylidene)-bisphosphonate, reference compound]
Ki [1]: 2500 nM
Inhibition of growth [2]: +++

From patent publication US5438048A, “Methylenebisphosphonic acid derivatives” (Leiras Oy, priority 1990, dated 1995)
